PubChem BioAssay AID330 (DTP/NCI, 2004)
The list shows only some results of the screen, not a fair sample: it gathers tests that were run many times, whatever their T/C, doses with no T/C, and many T/C values between a quarter and a half above the control. Further doses and runs are listed elsewhere. T/C is the treated group as % of the vehicle group. Some entries give survivors of the animals treated and no T/C: the source holds a T/C of zero for them, seemingly a mark for toxic or unscored doses. Some survivor counts are full or nearly so, which does not show that the dose was tolerated: the source hardly ever lists a survival T/C far under the control, and the zero likely stands for such cases as well. Counts of survivors are from the toxicity check (mostly the fifth day) where no day follows; animals may have died later. Schedule codes are those of the source, read here as Q, the interval in days (D) or hours (H), X, the number of doses. Some structures stand for samples that the source files as different forms (salt, stereo form or complex); doses refer to the form tested. Some doses were run more than once; the values are given in rising order. Where survival is the endpoint, the PubChem record calls one and a half times the control and up active, and a quarter to a half above the control has no call in these data; cut-offs in other NCI protocols can differ. Some T/C values are followed by the survivors on the day toxicity was checked, most often the fifth; without a count, all were alive then.

Tested on: P388 leukemia ip, CD2F1 mice, survival T/C
Experiment: NCI In Vivo Anticancer Drug Screen. Data for tumor model P388 Leukemia (intraperitoneal) in CD2F1 (CDF1) mice
Conditions: T/C endpoint: median survival time, higher T/C = longer survival
[1] = dose: 240.0 mg/kg/injection, schedule: Q01DX005 (ip), vehicle: saline with Tween-80
[2] = dose: 100.0 mg/kg/injection, schedule: Q01DX009 (ip), vehicle: Klucel (hydroxypropylcellulose) (HPC)

In the case of `O=[N+]([O-])c1ccc(N/N=C\c2c(Cl)n(-c3ccccc3)c3ccccc23)c([N+](=O)[O-])c1`, the survivor count (dose: 200.0 mg/kg/injection, schedule: Q04DX003 (ip), vehicle: saline with Tween-80) was 6 of 6.

For `CCOC(=O)Nc1cc(NC/C(=N/O)c2ccc(Cl)cc2)c([N+](=O)[O-])c(N)n1`, the survivor count (dose: 200.0 mg/kg/injection, schedule: Q01DX001 (ip), vehicle: Klucel (hydroxypropylcellulose) (HPC)) was 6 of 6.

`O=C(Nc1cccc([N+](=O)[O-])c1)OCc1ccc2c(c1)OCO2` was tested, and the survivor count [1] was 6 of 6.

`N=c1ncn(C2OC(CO)C(O)C2O)c2nc[nH]c12` (configuration not stated) was tested, and the survivor count (dose: 25.0 mg/kg/injection, schedule: Q01DX009 (ip), vehicle: Klucel (hydroxypropylcellulose) (HPC)) was 6 of 6, the survivor count (dose: 50.0 mg/kg/injection, schedule: Q01DX009 (ip), vehicle: Klucel (hydroxypropylcellulose) (HPC)) was 3 of 6 and 5 of 6 and the survivor count [2] was 0 of 6. For the same compound, the survivor count (dose: 200.0 mg/kg/injection, schedule: Q01DX009 (ip), vehicle: Klucel (hydroxypropylcellulose) (HPC)) was 0 of 6 and the survivor count (dose: 400.0 mg/kg/injection, schedule: Q01DX009 (ip), vehicle: Klucel (hydroxypropylcellulose) (HPC)) was 0 of 6.

For `N#Cc1ncn(Cc2ccccc2)c1N`, the survivor count (dose: 120.0 mg/kg/injection, schedule: Q01DX005 (ip), vehicle: saline with Tween-80) was 3 of 6 and the survivor count [1] was 2 of 6.

With `C=C(C)C(=NC1CCCCC1)NC(C)(C)C` the survivor count (dose: 50.0 mg/kg/injection, schedule: Q01DX005 (ip), vehicle: Klucel (hydroxypropylcellulose) (HPC)) was 5 of 5 and the survivor count (dose: 200.0 mg/kg/injection, schedule: Q01DX005 (ip), vehicle: Klucel (hydroxypropylcellulose) (HPC)) was 2 of 5.

For `CC(C)OC(=O)C#N`, the survivor count (dose: 25.0 mg/kg/injection, schedule: Q01DX005 (ip), vehicle: saline with Tween-80) was 0 of 6, the survivor count (dose: 50.0 mg/kg/injection, schedule: Q01DX005 (ip), vehicle: saline with Tween-80) was 0 of 6 and the survivor count (dose: 100.0 mg/kg/injection, schedule: Q01DX005 (ip), vehicle: saline with Tween-80) was 0 of 6. The survivor count (dose: 200.0 mg/kg/injection, schedule: Q01DX005 (ip), vehicle: saline with Tween-80) was 0 of 6.

In the case of `[O-]/[N+](=C\c1ccccc1)c1ccccc1`, the survivor count (dose: 400.0 mg/kg/injection, schedule: Q04DX003 (ip), vehicle: saline with Tween-80) was 4 of 6.

`N=c1c(C(=O)OCc2ccccc2)ncc(CCl)n1O` was tested, and the T/C (dose: 50.0 mg/kg/injection, schedule: Q01DX009 (ip), vehicle: saline with Tween-80) was 139 % of control, the T/C (dose: 100.0 mg/kg/injection, schedule: Q01DX009 (ip), vehicle: saline with Tween-80) was 139 % of control [5 of 6 alive] and the T/C (dose: 200.0 mg/kg/injection, schedule: Q01DX009 (ip), vehicle: saline with Tween-80) was 136 % of control.

For `C/C=C(\CC)C(C#N)O[Si](C)(C)C` (configuration not stated), the survivor count [1] was 0 of 6.

`CCn1c(=O)c2[nH]c(C(F)(F)F)nc2n(CC)c1=O` was tested, and the survivor count [2] was 2 of 6.

`NC(=O)c1cn(C2OC(CO)C(O)C2O)c2ncnc(N)c12` (configuration not stated) was tested, and the T/C (dose: 0.25 mg/kg/injection, schedule: Q01DX009 (ip), vehicle: suspension in saline) was 125 % of control, the T/C (dose: 0.5 mg/kg/injection, schedule: Q04DX003 (ip), vehicle: saline) was 127 % of control and the survivor count (dose: 1.0 mg/kg/injection, schedule: Q03HX024 (ip), vehicle: saline) was 10 of 10. For the same compound, the T/C (dose: 1.0 mg/kg/injection, schedule: Q04DX003 (ip), vehicle: saline) was 127 % of control, the survivor count (dose: 2.0 mg/kg/injection, schedule: Q03HX008 (ip), vehicle: saline) was 1 of 10 and the survivor count (dose: 2.0 mg/kg/injection, schedule: Q03HX016 (ip), vehicle: saline) was 4 of 10. The T/C (dose: 2.0 mg/kg/injection, schedule: Q04DX003 (ip), vehicle: saline) was 140 % of control, the survivor count (dose: 4.0 mg/kg/injection, schedule: Q01DX009 (ip), vehicle: suspension in saline) was 6 of 6 and the T/C (dose: 4.0 mg/kg/injection, schedule: Q04DX003 (ip), vehicle: saline) was 131 % of control. The survivor count (dose: 6.0 mg/kg/injection, schedule: Q04DX003 (ip), vehicle: saline) was 6 of 6, the survivor count (dose: 8.0 mg/kg/injection, schedule: Q01DX009 (ip), vehicle: suspension in saline) was 2 of 6 and the survivor count (dose: 8.0 mg/kg/injection, schedule: Q04DX003 (ip), vehicle: saline) was 10 of 10. For the same compound, the survivor count (dose: 9.0 mg/kg/injection, schedule: Q04DX003 (ip), vehicle: saline) was 5 of 6, the survivor count (dose: 16.0 mg/kg/injection, schedule: Q01DX001 (ip), vehicle: saline) was 0 of 10 and the survivor count (dose: 16.0 mg/kg/injection, schedule: Q08DX002 (ip), vehicle: saline) was 3 of 10.
